Measurements: US20100034780A1, “TUMOR ANTIGEN PEPTIDE DERIVED FROM AMACR” (priority 2005, published 2010)
“Also recorded” adds a separate entry of the source. At least one peptide structure holds a part that was inferred or is arguable (an end, a ring closure or a residue). Some entries repeat one wording, which the source may state once for all of them. Where no end group is shown, it is not given here.

Chains of the proteins cited; added tags and fusions are not shown.
UniProt P01901, whole entry, looked up, stated change not applied: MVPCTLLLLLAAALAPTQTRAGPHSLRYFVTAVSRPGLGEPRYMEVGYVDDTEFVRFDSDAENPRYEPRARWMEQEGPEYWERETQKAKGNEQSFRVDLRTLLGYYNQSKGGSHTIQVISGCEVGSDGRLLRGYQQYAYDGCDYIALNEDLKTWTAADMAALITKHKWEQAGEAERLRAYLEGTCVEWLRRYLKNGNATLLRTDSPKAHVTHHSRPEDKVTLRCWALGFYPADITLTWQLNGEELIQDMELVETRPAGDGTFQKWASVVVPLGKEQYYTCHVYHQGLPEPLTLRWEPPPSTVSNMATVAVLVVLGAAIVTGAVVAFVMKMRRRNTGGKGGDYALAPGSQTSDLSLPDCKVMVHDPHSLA

Target: T1, HLA-A*2402 (UniProt P01901+P04439, D101N/D140Y/E190D/F33S/G103R/G107R/I119L/I121M/L105A/N151K/N90K/Q86E/Q94H/R106L/R138H/R89G/T104I/V100E/W191G/Y123F)
T1 construct: H-2Kb portion (mouse MHC class I heavy chain); expressed in transfected cells; host or cells: RMA-S mouse lymphoma cell line (RMA-S-A*2402)
Assay: Binding affinity to HLA-A*2402, RMA-S-A*2402 cells, flow cytometry
Set-up: species or system human
Conditions: 100 μL/mL each peptide, anti-HLA-A24 antibody, FACScan, FIG. 1

FYELLIKGL [AMACR 240-248, FYELLIKGL] was tested, and the “binding affinity to HLA-A*2402 (mean fluorescence intensity)” value (“binding affinity” for short) was “bind to HLA-A*2402 in a highly preferable manner; also recorded: strong binding activity”.
For NMVEGTAYL [AMACR 183-191, NMVEGTAYL], the “binding affinity” value was “bind to HLA-A*2402 in a highly preferable manner; also recorded: strong binding activity”.
For NYLALSGVL [AMACR 125-133, NYLALSGVL], the “binding affinity” value was “bind to HLA-A*2402 in a highly preferable manner; also recorded: strong binding activity”.
